Data as given in PubChem BioAssay AID1159578 (Peter MacCallum Cancer Centre, 2015).

Purpose: 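Genome-wide hunt for genes controlling movement of lymphatic endothelial cells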 (primary screen)
System: human lymphatic endothelial cells
Reagents: siRNA pool against human genes, 40 nM
Timing: 48 h after transfection
Measurement: 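Cells stained with dye and imaged after a scratch; covered wound area and nuclei counted, duplicates averaged, migration set against mock wells and turned into a robust z-score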
Reading the numbers: migration robust z-score: higher = faster migration into the scratch; nuclei per well: higher = more cells in the well
Hit rule: 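Migration changed when robust z exceeds 2 or falls below -2 and mean nuclei number is at least 3300; otherwise not called changed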
Calls: active = migration changed; inactive = no migration change, or too few cells
The deposit covers about 18,000 reagents; below is a part drawn at random. About 1,030 of all reagents (5.7%) count as active. 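Inactive calls also include pools with fewer than 3300 nuclei, whose migration was not assessed.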 Raw values vary from plate to plate and are shown uncorrected. Further read-outs or replicates are left out here.

For CLEC2B (GeneID 9976) the deposit lists migration robust z-score -0.68; nuclei per well, duplicate mean 5790; inactive.
For COG1 (GeneID 9382) the deposit lists migration robust z-score -0.06; nuclei per well, duplicate mean 5158; inactive.
With knock-down of SYNJ1 (GeneID 8867), the screen gave migration robust z-score -0.88; nuclei per well, duplicate mean 4208; inactive.
Against ZNF572 (GeneID 137209) the deposit lists migration robust z-score 0.88; nuclei per well, duplicate mean 5815; inactive.
With knock-down of NDUFA12 (GeneID 55967), the record shows migration robust z-score -1.79; nuclei per well, duplicate mean 4214; inactive.
After knock-down of LCE3B (GeneID 353143), the record shows migration robust z-score 0.75; nuclei per well, duplicate mean 5329; inactive.
For ESM1 (GeneID 11082) the deposit lists migration robust z-score -0.86; nuclei per well, duplicate mean 5264; inactive.
Silencing of MSL2 (GeneID 55167) resulted in: migration robust z-score -0.03; nuclei per well, duplicate mean 5024; inactive.
After knock-down of VEGFC (GeneID 7424) the results were migration robust z-score 1.35; nuclei per well, duplicate mean 5978; inactive.
Knock-down of ADAMTS1 (GeneID 9510) came out at: migration robust z-score -0.78; nuclei per well, duplicate mean 5384; inactive.
Against ANK2 (GeneID 287), the values are migration robust z-score -0.65; nuclei per well, duplicate mean 5913; inactive.
LCA5 (GeneID 167691) scored migration robust z-score -1.29; nuclei per well, duplicate mean 6326; inactive.
XTBD1 (GeneID 91368) showed migration robust z-score -0.62; nuclei per well, duplicate mean 5499; inactive.
With knock-down of GPR83 (GeneID 10888) the results were migration robust z-score 1.53; nuclei per well, duplicate mean 6529; inactive.
Against SECTM1 (GeneID 6398), the values are migration robust z-score 0.33; nuclei per well, duplicate mean 5516; inactive.
Against NSMAF (GeneID 8439), the values are migration robust z-score 0.19; nuclei per well, duplicate mean 5277; inactive.
CEBPD (GeneID 1052) gave migration robust z-score -2.95; nuclei per well, duplicate mean 2986; inactive.
With knock-down of ARG2 (GeneID 384), the record shows migration robust z-score 0.32; nuclei per well, duplicate mean 6330; inactive.
PAK2 (GeneID 5062) gave migration robust z-score 0.65; nuclei per well, duplicate mean 5650; inactive.
With knock-down of PTK7 (GeneID 5754) the results were migration robust z-score -1.53; nuclei per well, duplicate mean 5140; inactive.
Silencing of DDIT4 (GeneID 54541) resulted in: migration robust z-score 0.51; nuclei per well, duplicate mean 6790; inactive.
AKT1 (GeneID 207) gave migration robust z-score 0.96; nuclei per well, duplicate mean 5148; inactive.
Depletion of LHX8 (GeneID 431707) resulted in: migration robust z-score 1.31; nuclei per well, duplicate mean 5362; inactive.
AGPAT5 (GeneID 55326) scored migration robust z-score 0.62; nuclei per well, duplicate mean 5306; inactive.
With knock-down of NEIL3 (GeneID 55247) the results were migration robust z-score 0.64; nuclei per well, duplicate mean 5905; inactive.
Knock-down of PDCD7 (GeneID 10081) resulted in: migration robust z-score -1.66; nuclei per well, duplicate mean 3096; inactive.
RAB8A (GeneID 4218) scored migration robust z-score -0.91; nuclei per well, duplicate mean 4487; inactive.

A run of entries taken from the entries so far, as a working copy:
VEGFC (GeneID 7424) | migration robust z-score = 1.35; nuclei per well, duplicate mean = 5978; activity call = inactive
ADAMTS1 (GeneID 9510) | migration robust z-score = -0.78; nuclei per well, duplicate mean = 5384; activity call = inactive
ANK2 (GeneID 287) | migration robust z-score = -0.65; nuclei per well, duplicate mean = 5913; activity call = inactive
